The target of this experiment is TPNI-CUTie (UniProt P19429). As to the kind of experiment: co-IP; RIPA lysates of ARVM or NRVM infected with adenovirus carrying the targeted CUTie chimera; 2-4 h at 4 °C with agarose beads coated with anti-GFP (GFP-Trap_A); five washes with ice-cold RIPA buffer; western blot of bound proteins. Background: In western blotting, separated proteins are transferred to a membrane and probed.

Results are given in words; binding and its absence hold for the method and conditions named. Binding seen in cells or lysates may run through a third protein. Some results given as binding are weak or reduced against the parent protein; the word gives no strength.

In the case of “Troponin T-C (from UniProt P50753 1-299)”, the binding entry is reported as “binds”.

These data come from PMC5411486.
